As a reminder, the AC50 is the concentration at which the activity in the assay is half-maximal.

Where “and” joins values, the source holds several entries; their conditions need not be identical. Identical values can stand only once. Some of the results follow. These are further read-outs of the screen, such as a control signal, another cell line or another target. No call is given for them. The list favours compounds with an active or inconclusive main result. Potencies come from curve fits of mixed quality, noted in brackets.

The nature of this assay: qHTS Assay for Modulators of Lamin A Splicing. To be noted: HeLa LMNA splicing GFP/RFP minigene ratio, 48 h. In short, it runs like this: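 S3 HeLa cells stably expressing lamin A-EGFP splicing minigene plus DsRed2, 600 cells/well, 48 h compound exposure at 37C. Laser-scanning cytometry; analysed as GFP (500-530 nm)/RFP (575-640 nm) total intensity ratio; 0.5% DMSO vehicle.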

Where [1] appears, read: measured here: GFP splicing reporter channel.
[2] abbreviates: measured here: RFP viability control channel.

Take `Cc1c(N=Cc2c(O)n(Cc3ccco3)c(=O)[nH]c2=O)c(=O)n(-c2ccccc2)n1C`: the AC50 was 1 µM [falling, full curve, poor fit] under setting [1] and 0.891 µM [falling, full curve, poor fit] under setting [2].

In the case of `COc1ccc(CN2CCc3nc(N4CCN(c5ccc(F)cc5)CC4)ncc3C2)c(OC)c1OC`, the AC50 under setting [2] is 11.2 µM [rising, partial curve, poor fit].

With `Cc1[nH]c2ccccc2c1C(=O)CN1CC=C(c2ccccc2)CC1`, the half-maximal activity concentration (AC50) by setting is: under setting [1], 15.8 µM [rising, single point]; under setting [2], 35.5 µM [rising, single point].

With `CCNC[C@H](O)c1cccc(O)c1`, the AC50 by setting is: under setting [1], 0.316 µM [falling, full curve, poor fit]; under setting [2], 0.251 µM [falling, full curve].

Regarding `COc1ccc(-n2c(/C=C/c3ccc4c(c3)OCO4)nc3ccccc3c2=O)cc1`, the AC50 under setting [2] was 35.5 µM [rising, single point].

For `Cc1cc(C(=O)N=Nc2c(O)n(C)c3ccccc23)c(C)o1`, the AC50 under setting [2] was 25.1 µM [rising, single point].

As to `CCN(CC)c1ccc(N=Cc2c(O)n(-c3cc(OC)ccc3OC)c(=O)[nH]c2=O)cc1`, the AC50 is 8.91 µM [rising, partial curve, poor fit] under setting [1] and 11.2 µM [rising, partial curve] under setting [2].

Regarding `C[C@]12CC[C@H](O)CC1=CCC1C2CC[C@]2(C)C(=O)CC[C@@H]12` (stereo partly specified), the AC50 runs as follows: under setting [1], 14.1 µM [rising, single point] and 10 µM [rising, partial curve]; under setting [2], 35.5 µM [rising, single point] and 5.01 nM [falling, full curve, poor fit].

For the molecule `Cc1ccsc1C(=O)C1CCCN(Cc2ccccc2O)C1` (stereo unspecified), under setting [1], the AC50 was 0.631 µM [falling, full curve, poor fit].

Take `Nc1nc2ccc(Cl)cc2c2nc(-c3ccco3)nn12`: the AC50 by setting is: under setting [1], 14.1 µM [falling, partial curve]; under setting [2], 8.91 µM [falling, partial curve].

With `CCCCOP(=O)(c1ccc(N(C)C)cc1)C(Nc1ccccc1)c1ccccc1` (stereo unspecified), the AC50 reads like this: under setting [1], 6.31 µM [rising, partial curve]; under setting [2], 14.1 µM [rising, single point].

On to `CSc1ccccc1C(=O)C1CCCN(Cc2cccc(C)n2)C1` (stereo unspecified), for which the AC50 under setting [1] was 15.8 µM [falling, single point].

As to `CCN(CC)C(=O)c1ccc(NC(=O)COc2ccc([N+](=O)[O-])cc2Cl)cc1`, the AC50 under setting [2] is 14.1 µM [rising, partial curve].

As to `NC(N)=NOCCC(N)C(=O)O` (stereo unspecified), the AC50 under setting [2] is 6.31 µM [falling, partial curve, poor fit].

For the origin of these results see PubChem BioAssay AID1487 (National Center for Advancing Translational Sciences (NCATS), 2009).
